# Record: PubChem BioAssay AID1259425 (University of Nebraska Medical Center, 2018)
# Assay: 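Compare each knockdown with KSR1 silencing using changes in marker transcripts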 (primary screen)
# System: HCT116 human colon cancer cells
# Reagent: siRNA pool against human genes, 50 nM siRNA
# Measured: 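mRNA of six signature genes measured together by branched-DNA assay after 50 nM siRNA pool, blank removed, divided by geometric mean of two housekeeping genes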
# Scale: BNIP3L mRNA: higher = more BNIP3L transcript after knockdown; NDRG1 mRNA: higher = more NDRG1 transcript after knockdown; BNIP3 mRNA: higher = more BNIP3 transcript after knockdown; ALDOC mRNA: higher = more ALDOC transcript after knockdown; ACSL5 mRNA: higher = more ACSL5 transcript after knockdown
# This is one part, drawn at random, of about 14,000 reagents tested. The record does not give: the time to read-out.
gene,"BNIP3L mRNA, set 1","NDRG1 mRNA, set 1","BNIP3 mRNA, set 1","ALDOC mRNA, set 1","ACSL5 mRNA, set 1"
COMP (cartilage oligomeric matrix protein),0.0649,0.145,0.178,0.0293,0.13
EDN3 (endothelin 3),0.0741,0.0775,0.283,0.0524,0.1
RANBP1 (RAN binding protein 1),0.0702,0.184,0.294,0.0115,0.125
SLC35A1,0.0426,0.116,0.305,0.0297,0.199
MEGF11 (multiple EGF like domains 11),0.0892,0.512,0.436,0.0683,0.169
SHROOM4 (shroom family member 4),0.251,0.114,0.489,0.0685,0.222
FOXJ3 (forkhead box J3),0.154,0.161,0.496,0.00676,0.188
SFTPA2B (retired record),0.0994,0.309,0.526,0.0208,0.152
HIKESHI (heat shock protein nuclear import factor hikeshi),0.905,0.525,0.873,0.114,0.52
WDCP (WD repeat and coiled coil containing),0.135,0.115,0.329,0.0333,0.117
GRB10 (growth factor receptor bound protein 10),0.108,0.182,0.157,0.0175,0.147
PDGFRL (platelet derived growth factor receptor like),0.0523,0.064,0.293,0.0213,0.132
ASS1 (argininosuccinate synthase 1),0.11,0.14,0.235,0.0259,0.213
GP2 (glycoprotein 2),0.113,0.114,0.33,0.0321,0.141
ARL1 (ARF like GTPase 1),0.126,0.55,0.343,0.0221,0.175

Copied from above for reference:
gene,"BNIP3L mRNA, set 1","NDRG1 mRNA, set 1","BNIP3 mRNA, set 1","ALDOC mRNA, set 1","ACSL5 mRNA, set 1"
SLC35A1,0.0426,0.116,0.305,0.0297,0.199
MEGF11 (multiple EGF like domains 11),0.0892,0.512,0.436,0.0683,0.169
SHROOM4 (shroom family member 4),0.251,0.114,0.489,0.0685,0.222
FOXJ3 (forkhead box J3),0.154,0.161,0.496,0.00676,0.188
SFTPA2B (retired record),0.0994,0.309,0.526,0.0208,0.152

The list goes on.
gene,"BNIP3L mRNA, set 1","NDRG1 mRNA, set 1","BNIP3 mRNA, set 1","ALDOC mRNA, set 1","ACSL5 mRNA, set 1"
STAG2 (STAG2 cohesin complex component),0.0752,0.338,0.225,0.0301,0.191
SCEL (sciellin),0.0941,0.278,0.337,0.0338,0.166
FAM90A1 (family with sequence similarity 90 member A1),0.0764,0.296,0.266,0.0576,0.0987
ZNF630 (zinc finger protein 630),0.139,0.178,0.29,0.0339,0.229
"MYC (MYC proto-oncogene, bHLH transcription factor)",0.123,0.0599,0.587,0.0129,0.0999
PNKP (polynucleotide kinase 3'-phosphatase),0.0909,0.159,0.878,0.000535,0.408
TAF7L (TATA-box binding protein associated factor 7 like),0.0337,0.107,0.255,0.0349,0.183
GLP1R (glucagon like peptide 1 receptor),0.136,0.115,0.283,0.0353,0.125
"POLR2K (RNA polymerase II, I and III subunit K)",0.0908,0.861,0.292,0.0494,0.282
MGA (MAX dimerization protein MGA),0.11,0.158,0.307,0.0203,0.118
KMT2E (lysine methyltransferase 2E (inactive)),0.0955,0.171,0.264,0.00889,0.192
ALDH5A1 (aldehyde dehydrogenase 5 family member A1),0.139,0.0504,0.228,0.00623,0.021
POR (cytochrome p450 oxidoreductase),0.12,0.357,0.323,0.0232,0.158
GGCX (gamma-glutamyl carboxylase),0.0801,0.199,0.256,0.0127,0.232
IMMP2L (inner mitochondrial membrane peptidase subunit 2),0.419,0.423,0.568,0.124,0.585
GRIN2A (glutamate ionotropic receptor NMDA type subunit 2A),0.0885,0.181,0.19,0.0225,0.128
MEIS2 (Meis homeobox 2),0.0728,0.0901,0.301,0.0147,0.11
KIF26A (kinesin family member 26A),0.0999,0.19,0.167,0.0294,0.307
ANKRD39 (ankyrin repeat domain 39),0.124,0.302,0.338,0.0298,0.158
